Source: patent publication US8298766B2, “Fluorescent dyes, methods of synthesis and applications thereof” (priority 2010, dated 2012)

Key:
calf thymus DNA [1] = assay: Fluorescence quantum yields in the absence and presence of calf thymus DNA in buffer solution; format: physicochemical; details: pH 7.4, 10 mM Tris-HCl buffer; dye 1 μM; calf thymus DNA 100 μM; Rhodamine B as standard
calf thymus DNA [2] = assay: Fluorescence emission spectra in the absence and presence of calf thymus DNA in buffer solution; format: binding; details: dye 1 μM; for relative fluorescence intensity I in the presence of calf thymus DNA: calf thymus DNA 100 μM
Experimental: (§1) FIG. 1 is the comparison of fluorescence emission spectra of compound A with commercially available dye EB in the absence and presence of calf thymus DNA respectively in pH 7.36, 10 mM Tris-HCl buffer. The abscissa is wavelength (nm) and the ordinate is the relative fluorescence intensity. The equipments used are a UV-Vis spectrophotometer (Hp8453) and a spectrofluorophotometer (FP-6500). The concentrations of compound A, EB and calf thymus DNA are 1 μM, 1 μM and 100 μM respectively.
as §1, with “FIG. 2” for “FIG. 1”, “compound B” for “compound A”, “pH 7.4,” for “pH 7.36,”, “compound B,” for “compound A,”, “100 μM,” for “100 μM”
as §1, with “FIG. 3” for “FIG. 1”, “compound C” for “compound A”, “pH 7.24,” for “pH 7.36,”, “compound C,” for “compound A,”, “100 μM,” for “100 μM”
Determinations of the fluorescence emission spectra of compound A and commercially available dye EB in the absence and presence of calf thymus DNA respectively in buffer solution
(§2) Solutions of compound A in DMSO and EB in water are separately prepared with the concentrations of 1 mM. 3 μL of each solution is diluted with 10 mM Tris-HCl buffer solution (pH 7.36) to 3 mL in a cuvette to determine its fluorescence intensity. Solution of calf thymus DNA in water is prepared, whose concentration is determined as 1.5 mM by the adsorption at 260 nm in spectrophotometry (using the molar absorption coefficients of ε260 nm=6600 M^−1 cm^−1). Besides, another 3 μL of each solution of compound A and EB mentioned above is added into a cuvette, then 200 μL of solution of calf thymus DNA is dropped into each cuvette. Finally each mixture of dyes and calf thymus DNA solution is diluted with pH 7.36, 10 mM Tris-HCl buffer solution to 3 mL and the fluorescence emission spectra are determined respectively after stabilization. […] The equipments used are a UV-Vis spectrophotometer (Hp8453) and a spectrofluorophotometer (FP-6500). The concentrations of compound A and EB are both 1 μM, the concentration of calf thymus DNA is 100 μM.
Determinations of the fluorescence emission spectra of compound B and commercially available dye EB in the absence and presence of calf thymus DNA respectively in buffer solution
as §2, with “compound B” for “compound A”, “(pH 7.4)” for “(pH 7.36)”, “pH 7.4,” for “pH 7.36,”, “μM. […]” for “μM.”

## CCN1C=C/C(=C\C=C\c2sc3ccccc3[n+]2CC)c2ccccc21 [M1, reference compound]
Calf thymus DNA [1]
  fluorescence quantum yield φF upon binding to calf thymus DNA: 0.26

## CCN1C=C/C(=C\C=C\c2sc3ccccc3[n+]2CCCC[N+](CC)(CC)CC)c2ccccc21 [M2]
Calf thymus DNA [1]
  fluorescence quantum yield φF upon binding to calf thymus DNA: 0.35

## CCN(CC)CCCC[n+]1c(/C=C/C=C2\C=CN(CC)c3ccccc32)sc2ccccc21.[I-] [compound A]
Calf thymus DNA [1]
  fluorescence quantum yield φF upon binding to calf thymus DNA: 0.36
Calf thymus DNA [2]; pH 7.36, 10 mM Tris-HCl buffer
  relative fluorescence intensity I0 in the absence of calf thymus DNA: 6.25
  relative fluorescence intensity I in the presence of calf thymus DNA: 345.3

## COc1ccc2c(c1)oc(/C=C/C=C1\C=CN(CCCN3CCCCC3)c3ccccc31)[n+]2CCCN1CCCCC1.[Br-] [compound B]
Calf thymus DNA [2]; pH 7.4, 10 mM Tris-HCl buffer
  relative fluorescence intensity I0 in the absence of calf thymus DNA: 2.28
  relative fluorescence intensity I in the presence of calf thymus DNA: 203.3

## NCCNCCC[n+]1c(/C=C/C=C2\C=CN(CCO)c3ccccc32)sc2ccccc21 [compound C]
Calf thymus DNA [2]; pH 7.24, 10 mM Tris-HCl buffer
  relative fluorescence intensity I0 in the absence of calf thymus DNA: 3.65
  relative fluorescence intensity I in the presence of calf thymus DNA: 274.5
